Assay: TMTcalibrator quantification of regulated proteins in AD CSF versus control
Set-up: species or system human
Details: CSF of AD patient versus control; non-modified peptides of each protein summed for three control and three AD cases

Row | Molecule | Log2 AD/Control
1 | Q14019 (protein, UniProt Q14019 1-142, looked up, full-length) MATKIDKEACRAAYNLVRDDGSAVIWVTFKYDGSTIVPGEQGAEYQHFIQQCTDDVRLFAFVRFTTGDAMSKRSKFALITWIGENVSGLQRAKTGTDKTLVKEVVQNFAKEFVISDRKELEEDFIKSELKKAGGANYDAQTE | 0.68
2 | P47985 (protein, UniProt P47985 1-274, looked up, full-length) MLSVASRSGPFAPVLSATSRGVAGALRPLVQATVPATPEQPVLDLKRPFLSRESLSGQAVRRPLVASVGLNVPASVCYSHTDIKVPDFSEYRRLEVLDSTKSSRESSEARKGFSYLVTGVTTVGVAYAAKNAVTQFVSSMSASADVLALAKIEIKLSDIPEGKNMAFKWRGKPLFVRHRTQKEIEQEAAVELSQLRDPQHDLDRVKKPEWVILIGVCTHLGCVPIANAGDFGGYYCPCHGSHYDASGRIRLGPAPLNLEVPTYEFTSDDMVIVG | 1.13
3 | Q5JTJ3 (protein, UniProt Q5JTJ3 1-125, looked up, full-length) MGPGGPLLSPSRGFLLCKTGWHSNRLLGDCGPHTPVSTALSFIAVGMAAPSMKERQVCWGARDEYWKCLDENLEDASQCKKLRSSFESSCPQQWIKYFDKRRDYLKFKEKFEAGQFEPSETTAKS | 1.23
4 | P25325 (protein, UniProt P25325 1-297, looked up, full-length) MASPQLCRALVSAQWVAEALRAPRAGQPLQLLDASWYLPKLGRDARREFEERHIPGAAFFDIDQCSDRTSPYDHMLPGAEHFAEYAGRLGVGAATHVVIYDASDQGLYSAPRVWWMFRAFGHHAVSLLDGGLRHWLRQNLPLSSGKSQPAPAEFRAQLDPAFIKTYEDIKENLESRRFQVVDSRATGRFRGTEPEPRDGIEPGHIPGTVNIPFTDFLSQEGLEKSPEEIRHLFQEKKVDLSKPLVATCGSGVTACHVALGAYLCGKPDVPIYDGSWVEWYMRARPEDVISEGRGKTH | 0.81
5 | Q8IZR5 (protein, UniProt Q8IZR5 1-234, looked up, full-length) MRSGEELDGFEGEASSTSMISGASSPYQPTTEPVSQRRGLAGLRCDPDYLRGALGRLKVAQVILALIAFICIETIMACSPCEGLYFFEFVSCSAFVVTGVLLIMFSLNLHMRIPQINWNLTDLVNTGLSAFLFFIASIVLAALNHRAGAEIAAVIFGFLATAAYAVNTFLAVQKWRVSVRQQSTNDYIRARTESRDVDSRPEIQRLDTFSYSTNVTVRKKSPTNLLSLNHWQLA | 0.70
6 | Q9UPT6 (protein, UniProt Q9UPT6 1-1336, looked up, full-length) MMEIQMDEGGGVVVYQDDYCSGSVMSERVSGLAGSIYREFERLIHCYDEEVVKELMPLVVNVLENLDSVLSENQEHEVELELLREDNEQLLTQYEREKALRRQAEEKFIEFEDALEQEKKELQIQVEHYEFQTRQLELKAKNYADQISRLEERESEMKKEYNALHQRHTEMIQTYVEHIERSKMQQVGGNSQTESSLPGRRKERPTSLNVFPLADGTVRAQIGGKLVPAGDHWHLSDLGQLQSSSSYQCPQDEMSESGQSSAAATPSTTGTKSNTPTSSVPSAAVTPLNESLQPLGDYGVGSKNSKRAREKRDSRNMEVQVTQEMRNVSIGMGSSDEWSDVQDIIDSTPELDMCPETRLDRTGSSPTQGIVNKAFGINTDSLYHELSTAGSEVIGDVDEGADLLGEFSVRDDFFGMGKEVGNLLLENSQLLETKNALNVVKNDLIAKVDQLSGEQEVLRGELEAAKQAKVKLENRIKELEEELKRVKSEAIIARREPKEEAEDVSSYLCTESDKIPMAQRRRFTRVEMARVLMERNQYKERLMELQEAVRWTEMIRASREHPSVQEKKKSTIWQFFSRLFSSSSSPPPAKRPYPSVNIHYKSPTTAGFSQRRNHAMCPISAGSRPLEFFPDDDCTSSARREQKREQYRQVREHVRNDDGRLQACGWSLPAKYKQLSPNGGQEDTRMKNVPVPVYCRPLVEKDPTMKLWCAAGVNLSGWRPNEDDAGNGVKPAPGRDPLTCDREGDGEPKSAHTSPEKKKAKELPEMDATSSRVWILTSTLTTSKVVIIDANQPGTVVDQFTVCNAHVLCISSIPAASDSDYPPGEMFLDSDVNPEDPGADGVLAGITLVGCATRCNVPRSNCSSRGDTPVLDKGQGEVATIANGKVNPSQSTEEATEATEVPDPGPSEPETATLRPGPLTEHVFTDPAPTPSSGPQPGSENGPEPDSSSTRPEPEPSGDPTGAGSSAAPTMWLGAQNGWLYVHSAVANWKKCLHSIKLKDSVLSLVHVKGRVLVALADGTLAIFHRGEDGQWDLSNYHLMDLGHPHHSIRCMAVVYDRVWCGYKNKVHVIQPKTMQIEKSFDAHPRRESQVRQLAWIGDGVWVSIRLDSTLRLYHAHTHQHLQDVDIEPYVSKMLGTGKLGFSFVRITALLVAGSRLWVGTGNGVVISIPLTETVVLHRGQLLGLRANKTSPTSGEGARPGGIIHVYGDDSSDRAASSFIPYCSMAQAQLCFHGHRDAVKFFVSVPGNVLATLNGSVLDSPAEGPGPAAPASEVEGQKLRNVLVLSGGEGYIDFRIGDGEDDETEEGAGDMSQVKPVLSKAERSHIIVWQVSYTPE | −0.85
7 | P53618 (protein, UniProt P53618 1-953, looked up, full-length) MTAAENVCYTLINVPMDSEPPSEISLKNDLEKGDVKSKTEALKKVIIMILNGEKLPGLLMTIIRFVLPLQDHTIKKLLLVFWEIVPKTTPDGRLLHEMILVCDAYRKDLQHPNEFIRGSTLRFLCKLKEAELLEPLMPAIRACLEHRHSYVRRNAVLAIYTIYRNFEHLIPDAPELIHDFLVNEKDASCKRNAFMMLIHADQDRALDYLSTCIDQVQTFGDILQLVIVELIYKVCHANPSERARFIRCIYNLLQSSSPAVKYEAAGTLVTLSSAPTAIKAAAQCYIDLIIKESDNNVKLIVLDRLIELKEHPAHERVLQDLVMDILRVLSTPDLEVRKKTLQLALDLVSSRNVEELVIVLKKEVIKTNNVSEHEDTDKYRQLLVRTLHSCSVRFPDMAANVIPVLMEFLSDNNEAAAADVLEFVREAIQRFDNLRMLIVEKMLEVFHAIKSVKIYRGALWILGEYCSTKEDIQSVMTEIRRSLGEIPIVESEIKKEAGELKPEEEITVGPVQKLVTEMGTYATQSALSSSRPTKKEEDRPPLRGFLLDGDFFVAASLATTLTKIALRYVALVQEKKKQNSFVAEAMLLMATILHLGKSSLPKKPITDDDVDRISLCLKVLSECSPLMNDIFNKECRQSLSHMLSAKLEEEKLSQKKESEKRNVTVQPDDPISFMQLTAKNEMNCKEDQFQLSLLAAMGNTQRKEAADPLASKLNKVTQLTGFSDPVYAEAYVHVNQYDIVLDVLVVNQTSDTLQNCTLELATLGDLKLVEKPSPLTLAPHDFANIKANVKVASTENGIIFGNIVYDVSGAASDRNCVVLSDIHIDIMDYIQPATCTDAEFRQMWAEFEWENKVTVNTNMVDLNDYLQHILKSTNMKCLTPEKALSGYCGFMAANLYARSIFGEDALANVSIEKPIHQGPDAAVTGHIRIRAKSQGMALSLGDKINLSQKKTSI | 1.07
8 | Q96A33 (protein, UniProt Q96A33 1-483, looked up, full-length) MKAFHTFCVVLLVFGSVSEAKFDDFEDEEDIVEYDDNDFAEFEDVMEDSVTESPQRVIITEDDEDETTVELEGQDENQEGDFEDADTQEGDTESEPYDDEEFEGYEDKPDTSSSKNKDPITIVDVPAHLQNSWESYYLEILMVTGLLAYIMNYIIGKNKNSRLAQAWFNTHRELLESNFTLVGDDGTNKEATSTGKLNQENEHIYNLWCSGRVCCEGMLIQLRFLKRQDLLNVLARMMRPVSDQVQIKVTMNDEDMDTYVFAVGTRKALVRLQKEMQDLSEFCSDKPKSGAKYGLPDSLAILSEMGEVTDGMMDTKMVHFLTHYADKIESVHFSDQFSGPKIMQEEGQPLKLPDTKRTLLFTFNVPGSGNTYPKDMEALLPLMNMVIYSIDKAKKFRLNREGKQKADKNRARVEENFLKLTHVQRQEAAQSRREEKKRAEKERIMNEEDPEKQRRLEEAALRREQKKLEKKQMKMKQIKVKAM | 0.79
9 | Q03591 (protein, UniProt Q03591 1-330, looked up, full-length) MWLLVSVILISRISSVGGEATFCDFPKINHGILYDEEKYKPFSQVPTGEVFYYSCEYNFVSPSKSFWTRITCTEEGWSPTPKCLRLCFFPFVENGHSESSGQTHLEGDTVQIICNTGYRLQNNENNISCVERGWSTPPKCRSTDTSCVNPPTVQNAHILSRQMSKYPSGERVRYECRSPYEMFGDEEVMCLNGNWTEPPQCKDSTGKCGPPPPIDNGDITSFPLSVYAPASSVEYQCQNLYQLEGNKRITCRNGQWSEPPKCLHPCVISREIMENYNIALRWTAKQKLYLRTGESAEFVCKRGYRLSSRSHTLRTTCWDGKLEYPTCAKR | −0.67
10 | P14927 (protein, UniProt P14927 1-111, looked up, full-length) MAGKQAVSASGKWLDGIRKWYYNAAGFNKLGLMRDDTIYEDEDVKEAIRRLPENLYNDRMFRIKRALDLNLKHQILPKEQWTKYEEENFYLEPYLKEVIRERKEREEWAKK | 0.98
11 | Q9UKG1 (protein, UniProt Q9UKG1 1-709, looked up, full-length) MPGIDKLPIEETLEDSPQTRSLLGVFEEDATAISNYMNQLYQAMHRIYDAQNELSAATHLTSKLLKEYEKQRFPLGGDDEVMSSTLQQFSKVIDELSSCHAVLSTQLADAMMFPITQFKERDLKEILTLKEVFQIASNDHDAAINRYSRLSKKRENDKVKYEVTEDVYTSRKKQHQTMMHYFCALNTLQYKKKIALLEPLLGYMQAQISFFKMGSENLNEQLEEFLANIGTSVQNVRREMDSDIETMQQTIEDLEVASDPLYVPDPDPTKFPVNRNLTRKAGYLNARNKTGLVSSTWDRQFYFTQGGNLMSQARGDVAGGLAMDIDNCSVMAVDCEDRRYCFQITSFDGKKSSILQAESKKDHEEWICTINNISKQIYLSENPEETAARVNQSALEAVTPSPSFQQRHESLRPAAGQSRPPTARTSSSGSLGSESTNLAALSLDSLVAPDTPIQFDIISPVCEDQPGQAKAFGQGGRRTNPFGESGGSTKSETEDSILHQLFIVRFLGSMEVKSDDHPDVVYETMRQILAARAIHNIFRMTESHLLVTCDCLKLIDPQTQVTRLTFPLPCVVLYATHQENKRLFGFVLRTSSGRSESNLSSVCYIFESNNEGEKICDSVGLAKQIALHAELDRRASEKQKEIERVKEKQQKELNKQKQIEKDLEEQSRLIAASSRPNQASSEGQFVVLSSSQSEESDLGEGGKKRESEA | 0.79

From patent publication US12419871B2, “Biomolecules involved in Alzheimer's disease” (ELECTROPHORETICS LIMITED, priority 2015, dated 2025)
